# Results deposited as PubChem BioAssay AID1259308 (NCATS, 2017).
# Aim: 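Candidate targets for better recombinant protein yield in mammalian cells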 (primary screen)
# Cell system: human HEK293 embryonic kidney cells stably expressing firefly luciferase (HEK-CMV-Luc2-Hygro)
# Knock-down reagent: single siRNA against human genes, 0.8 pmol siRNA per well
# Timing: 72 h
# Detection: 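Luciferase light (ONE-Glo) measured on one replicate plate set and viability (CellTiter-Glo) on the other, scaled to a negative control siRNA, with robust z-scores and luciferase per cell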
# Direction: total luciferase, z-score and total luciferase, % of control: higher = more reporter protein produced; luciferase per cell, z-score: higher = more reporter output per viable cell; viable cells, % of control: higher = more viable cells
# Rule for the call: 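Active when the median/MAD z-score for overall luciferase is greater than 3; a gene was taken forward for validation with new siRNAs if at least two of its three siRNAs passed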
# Meaning of the calls: active = raised luciferase; inactive = no rise
# The whole screen tested about 59,000 reagents; this is an unselected part. Over the whole deposit, about 1,510 (2.6%) got an active call. 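Calls use total luciferase alone and ignore viability, so some active siRNAs may act by altering cell number.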
Gene,PubChem SID,"total luciferase, z-score","total luciferase, % of control","luciferase per cell, z-score","viable cells, % of control",call
RAB11FIP5,SID160737551,0.284,87.5,0.701,81.3,inactive
RAB11FIP5,SID160737552,-0.712,67.7,-0.485,86,inactive
RAB11FIP5,SID160737553,0.375,89.3,0.33,91.5,inactive
ANXA3,SID160717782,-0.821,65.6,-0.921,93.4,inactive
ANXA3,SID160717792,1.22,106,0.935,92.7,inactive
ANXA3,SID160717802,-1.06,60.8,0.0455,67.1,inactive
CTAGE15,SID160767982,0.544,92.7,0.468,91.6,inactive
CTAGE15,SID160767983,0.17,85.3,0.0745,93.4,inactive
CTAGE15,SID160767984,2.16,125,1.28,99.6,inactive
PTRH2,SID160741155,4.58,173,2.21,108,active
PTRH2,SID160741156,-0.117,79.6,-0.396,98.7,inactive
PTRH2,SID160741157,-1.56,50.8,-1.88,93.2,inactive
BPIFA2,SID160757823,0.223,86.3,-0.0567,97.9,inactive
BPIFA2,SID160757824,0.134,84.6,-0.077,96.4,inactive
BPIFA2,SID160757825,3.12,144,2.32,87.4,active
LETM1,SID160776574,-0.352,74.9,0.823,67.4,inactive
LETM1,SID160776575,-0.872,64.5,-0.447,81.1,inactive
LETM1,SID160776576,0.523,92.3,0.78,84,inactive
KRR1,SID160729951,3.35,148,3.49,66.2,active
KRR1,SID160729952,-0.626,69.4,-1.16,105,inactive
KRR1,SID160729953,0.224,86.3,-0.191,101,inactive
LGALS7B,SID160726402,1.37,109,2.1,70.2,inactive
LGALS7B,SID160726403,-1.39,54.3,-0.321,66.1,inactive
LGALS7B,SID160726404,-0.124,79.4,-0.252,94.8,inactive
ZNF211,SID160728631,0.184,85.5,0.755,78.3,inactive
ZNF211,SID160728633,0.89,99.6,1.59,73.3,inactive
ZNF211,SID160728634,-1.11,59.8,-0.91,84.9,inactive
NEK9,SID160754096,-0.996,62.1,-2.07,119,inactive
NEK9,SID160754097,1.22,106,1.24,85.8,inactive
NEK9,SID160754098,-0.479,72.4,-0.572,94,inactive
ZNF850-DT,SID160771844,-0.0101,81.7,-0.0963,93.6,inactive
ZNF850-DT,SID160771845,1.2,106,1.23,85.5,inactive
ZNF850-DT,SID160771846,1.43,110,1.3,87.5,inactive
EEF1DP6,SID160725728,-0.755,66.9,-0.346,81.8,inactive
EEF1DP6,SID160725729,0.211,86.1,-0.286,104,inactive
EEF1DP6,SID160769189,-0.184,78.2,0.0352,86.6,inactive
TNFRSF18,SID160724194,0.594,93.7,-0.345,115,inactive
TNFRSF18,SID160724196,-1.43,53.4,-2.16,105,inactive
TNFRSF18,SID160727865,0.0149,82.2,0.108,89.3,inactive
CUZD1,SID160739664,-2.36,35,-1.73,61.7,inactive
CUZD1,SID160739665,-0.683,68.3,0.533,66.3,inactive
CUZD1,SID160739667,0.305,88,0.392,88.7,inactive
SLC3A2,SID160716824,-0.623,69.5,-1.4,112,inactive
SLC3A2,SID160716825,-0.636,69.2,-0.737,93.9,inactive
SLC3A2,SID160716826,0.413,90.1,-0.0446,102,inactive

Next part, starting with the last 8 of the part before.
Gene,PubChem SID,"total luciferase, z-score","total luciferase, % of control","luciferase per cell, z-score","viable cells, % of control",call
TNFRSF18,SID160724196,-1.43,53.4,-2.16,105,inactive
TNFRSF18,SID160727865,0.0149,82.2,0.108,89.3,inactive
CUZD1,SID160739664,-2.36,35,-1.73,61.7,inactive
CUZD1,SID160739665,-0.683,68.3,0.533,66.3,inactive
CUZD1,SID160739667,0.305,88,0.392,88.7,inactive
SLC3A2,SID160716824,-0.623,69.5,-1.4,112,inactive
SLC3A2,SID160716825,-0.636,69.2,-0.737,93.9,inactive
SLC3A2,SID160716826,0.413,90.1,-0.0446,102,inactive
DES,SID160753816,2.97,141,1.76,99,inactive
DES,SID160753825,-0.235,77.2,-0.416,96.3,inactive
DES,SID160753836,-1.15,59,-1.83,107,inactive
HSH2D,SID160752999,-1.48,52.4,-1.83,94.8,inactive
HSH2D,SID160753000,1.21,106,0.425,106,inactive
HSH2D,SID160753001,0.922,100,1.03,85.3,inactive
DDI1,SID160767595,1.46,111,1.25,89.3,inactive
DDI1,SID160767596,2.14,124,1.02,106,inactive
DDI1,SID160767597,0.976,101,0.367,103,inactive
MYO7A,SID160777717,2.27,127,1.8,88.3,inactive
MYO7A,SID160777718,-0.627,69.4,-0.55,89.7,inactive
MYO7A,SID160777719,1.2,106,2.04,69,inactive
ALKBH7,SID160724611,1.86,119,1.63,86.4,inactive
ALKBH7,SID160735084,-1.25,57,-1.53,95.4,inactive
ALKBH7,SID160752001,1.01,102,1.5,76.8,inactive
CENPT,SID160734977,1.41,110,2.43,64.8,inactive
CENPT,SID160750120,0.235,86.6,0.561,83.4,inactive
CENPT,SID160750121,0.471,91.2,0.384,92.1,inactive
NDUFB3,SID160777865,-0.422,73.5,-0.513,94,inactive
NDUFB3,SID160777866,-0.891,64.2,-0.905,91,inactive
NDUFB3,SID160777867,-1.05,60.9,-1.09,90.8,inactive
KCNRG,SID160732932,-1.43,53.4,-1.41,86.5,inactive
KCNRG,SID160762949,0.0187,82.3,0.797,74.5,inactive
KCNRG,SID160762950,-0.547,71,0.207,75.1,inactive
ANKS4B,SID160762569,1.56,113,1.22,91.5,inactive
ANKS4B,SID160762572,3.26,147,1.77,103,active
ANKS4B,SID160762573,0.06,83.1,-0.502,106,inactive
AKT3,SID160723640,1.97,121,1.89,82.3,inactive
AKT3,SID160723646,0.187,85.6,-0.449,108,inactive
AKT3,SID160723657,1.44,111,1.15,91.4,inactive
